Our source for the binding values is publication PMC10997846.

Amino acid sequences for entries named in this document (tags omitted).
UniProt O60262: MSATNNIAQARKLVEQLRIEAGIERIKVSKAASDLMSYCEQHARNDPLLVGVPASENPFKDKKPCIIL

For this assay, the target named is T1, R-spondin 3 (human (endogenous in AGS or MKN45 gastric cancer cells)) (UniProt Q9BXY4).
T1 sequence: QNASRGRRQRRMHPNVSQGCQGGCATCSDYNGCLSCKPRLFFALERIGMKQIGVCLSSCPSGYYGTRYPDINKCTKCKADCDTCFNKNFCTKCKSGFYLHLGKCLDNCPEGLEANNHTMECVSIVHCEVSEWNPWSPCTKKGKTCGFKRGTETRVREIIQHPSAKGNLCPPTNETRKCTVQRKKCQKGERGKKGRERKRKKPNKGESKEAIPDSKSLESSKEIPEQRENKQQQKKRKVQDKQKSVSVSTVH
The experiment in a line: affinity purification with mass spectrometry; 200 ug cellular lysate precleared with rabbit IgG and Protein A + G Agarose, incubated with 20 ug anti-RSPO3 antibody at 4°C for 12 h, captured on Protein A + G Agarose; SDS-PAGE, in-gel trypsin digestion, LC-MS/MS.

These are yes or no findings as the source states them, for the method shown. In cells and extracts the contact can be indirect. These calls come from enrichment with a bait or labelling near it, and not all partners need be listed.

Take “G protein subunit gamma 7 (from UniProt O60262 1-68)”: the binding result is on record as “binds”.
